By UniProt entry, the sequences of proteins in these tests, tags left out.
UniProt P53350, whole entry, looked up: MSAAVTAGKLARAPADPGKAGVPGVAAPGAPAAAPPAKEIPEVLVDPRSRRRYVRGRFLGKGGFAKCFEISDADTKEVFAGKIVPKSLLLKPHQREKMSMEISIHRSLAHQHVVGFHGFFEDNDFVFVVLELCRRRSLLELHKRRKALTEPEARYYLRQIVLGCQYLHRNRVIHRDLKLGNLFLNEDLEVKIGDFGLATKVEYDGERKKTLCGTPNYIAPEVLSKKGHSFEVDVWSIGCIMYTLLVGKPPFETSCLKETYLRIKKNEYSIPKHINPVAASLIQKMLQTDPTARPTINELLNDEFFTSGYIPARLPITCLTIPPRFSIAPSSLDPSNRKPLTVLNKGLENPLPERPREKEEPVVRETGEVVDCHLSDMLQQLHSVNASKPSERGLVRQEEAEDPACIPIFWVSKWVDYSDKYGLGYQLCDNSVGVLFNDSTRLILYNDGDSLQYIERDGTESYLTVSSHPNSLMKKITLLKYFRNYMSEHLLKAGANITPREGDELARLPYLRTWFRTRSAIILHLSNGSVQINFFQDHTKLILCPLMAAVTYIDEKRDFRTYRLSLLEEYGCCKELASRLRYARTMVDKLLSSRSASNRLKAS

Screen size: about 360,000 compounds; about 10,000 (2.8%) were called active. Inconclusive means that the source gave no clear call. Such entries were picked first, then a sample of the others. Calls come from the whole dose curve; as a rule, active = well fitted inhibition curve with a large enough effect; inconclusive = small, poorly fitted or top-dose-only effect; inactive = flat fitted curve, though single readings scatter. Potencies of inconclusive entries are doubtful fits and often do not repeat.
Each compound was assayed against Serine/threonine-protein kinase PLK1 (Homo sapiens) (UniProt P53350) (assay: qHTS for Inhibitors of PLK1-PDB (polo-like kinase 1 - polo-box domain): Primary Screen). Settings: Plk1 PBD binding of FITC phosphopeptide, fluorescence polarization.
`Cc1nn(CC(=O)Nc2sc3c(c2C#N)CCC(C(C)(C)C)C3)c(C)c1[N+](=O)[O-]` (stereo not given) was tested, and the Potency was inconclusive: 26.7 µM [inhibitor, partial curve].
For `CN(C)S(=O)(=O)c1ccc(C(=O)NCCSc2ccc(Br)cc2)cc1`, the Potency was inconclusive: 29.9 µM [inhibitor, partial curve].
With `O=c1cc2oc3cc(O)c(O)cc3c(-c3ccccc3O)c-2cc1O` the Potency was active: 23.8 µM.
In the case of `CCc1nc2c(OCc3cc(Cl)cc(Cl)c3)cccn2c1N(C)C(=O)c1ccc(OC)cc1`, the max response, negative = inhibition is reported as inactive: -7.83%.
In the case of `O=C(NCC1CCOCC1)c1cccc2c(-c3cccnc3)coc12`, the max response, negative = inhibition is reported as inactive: -5.16%.
`O=S(=O)(Nc1ccc(O)c2ccccc12)c1ccc(F)cc1` was tested, and the Potency was active: 26.7 µM.
In the case of `COc1ccc(CNc2ccc([N+](=O)[O-])cc2C)cc1`, the max response, negative = inhibition is reported as inactive: -8.38%.
In the case of `COc1cc(CNC(=O)c2cc(-c3cc(OC)ccc3Cl)n[nH]2)cc(OC)c1`, the max response, negative = inhibition is reported as inactive: 4.83%.
In the case of `O=C(C1CCC(CNc2nc(=S)[nH]c3ccccc23)CC1)N1CCN(c2ccc(F)cc2)CC1` (stereo not given), the Potency is reported as active: 21.2 µM.
In the case of `CC1CCN(CCCCOc2ccc(C(=O)c3ccccc3)cc2)CC1`, the Potency is reported as active: 26.7 µM.
For `CCN(c1cc(C)cc(C)c1)S(=O)(=O)c1nnc(NC(=O)c2ccco2)s1`, the Potency was inconclusive: 26.7 µM [inhibitor, single point].
With `O=C(Nc1ccnn1C1CCN(CCCC2CCCC2)CC1)c1ccccc1Cl` the max response, negative = inhibition was inactive: 3.62%.
With `COc1ccc(OC)c(NC(=O)CSc2nncc3ccc(OC)c(OC)c23)c1` the Potency was inconclusive: 37.7 µM [inhibitor, single point].
`Cc1cccc(N2CCN(C(=O)c3ccc4c(c3)NC(=O)C(CSCc3cccc(F)c3)N4)CC2C)c1` (stereo not given) was tested, and the Potency was inconclusive: 23.8 µM [inhibitor, partial curve].
For `CCc1ccccc1NC(=O)Cc1ccc(-n2cccc2)cc1`, the Potency was active: 7.52 µM.
For `CC1CC2(CC(C)(C(=O)CSc3n[nH]c(-c4ccccc4Cl)n3)OC2=O)C(=O)O1` (stereo not given), the Potency was inconclusive: 26.7 µM [inhibitor, single point].
With `CN(CC(=O)Nc1ccccc1Cl)C(=O)COC(=O)c1nc(Cl)c(Cl)c(Cl)c1Cl` the max response, negative = inhibition was inactive: -19.8%.
For `COc1cccc(C2=NOC(C(=O)Nc3ccc4c(c3)OCO4)C2)c1` (stereo not given), the max response, negative = inhibition was inactive: -1.83%.
For `CCc1cccc(C)c1N(C(=O)Cn1c(COC)nc2ccccc21)C(C)COC` (stereo not given), the Potency was inconclusive: 29.9 µM [inhibitor, partial curve].
For `O=C(O)c1cc(-c2ccco2)nc2ccccc12`, the Potency was inconclusive: 21.2 µM [inhibitor, partial curve].

Reference: PubChem BioAssay AID720504 (National Center for Advancing Translational Sciences (NCATS), 2013)
% is set by controls: 0 for no effect and ±100 for the full control effect; potency is the fitted concentration of half-maximal effect.
Note: nearly all actives have a fitted effect of over 65% in size.
Throughout, for max response, negative = inhibition: series mostly up to about 57 µM.
